{
  "source": "patent EP3964225A1",
  "about": "(priority 2020, dated 2022)",
  "system": "HUVECs",
  "test": "Angiogenic activity assay under normal and stressed condition",
  "assay_type": "cell-based, Human",
  "conditions": "10 ng/ml",
  "note": "Not every detail of the peptide structures is certain; ends, links or a residue may be inferred. Some compounds share one wording; it may come from a single statement. Where no end group is shown, it is not given here.",
  "data": [
    {"sequence": "DSRVLERYLLE [EPO peptide, DSRVLERYLLE]", "values": [
      {"measurement": "angiogenic activity", "setting": "normal (10% FBS) culture conditions", "result": "potent angiogenic activity"},
      {"measurement": "angiogenic activity", "setting": "stressed (serum starved; 0.5% FBS) conditions", "result": "potent angiogenic activity"}
    ]}
  ]
}
